From paper doi:10.1101/2024.07.02.601773

B1: THEMIS (protein, UniProt Q8N1K5 1-641)
chain: MALSLEEFVHSLDLRTLPRVLEIQAGIYLEGSIYEMFGNECCFSTGEVIKITGLKVKKIIAEICEQIEGCESLQPFELPMNFPGLFKIVADKTPYLTMEEITRTIHIGPSRLGHPCFYHQKDIKLENLIIKQGEQIMLNSVEEIDGEIMVSCAVARNHQTHSFNLPLSQEGEFYECEDERIYTLKEIVEWKIPKNRTRTVNLTDFSNKWDSTNPFPKDFYGTLILKPVYEIQGVMKFRKDIIRILPSLDVEVKDITDSYDANWFLQLLSTEDLFEMTSKEFPIVTEVIEAPEGNHLPQSILQPGKTIVIHKKYQASRILASEIRSNFPKRHFLIPTSYKGKFKRRPREFPTAYDLEIAKSEKEPLHVVATKAFHSPHDKLSSVSVGDQFLVHQSETTEVLCEGIKKVVNVLACEKILKKSYEAALLPLYMEGGFVEVIHDKKQYPISELCKQFRLPFNVKVSVRDLSIEEDVLAATPGLQLEEDITDSYLLISDFANPTECWEIPVGRLNMTVQLVSNFSRDAEPFLVRTLVEEITEEQYYMMRRYESSASHPPPRPPKHPSVEETKLTLLTLAEERTVDLPKSPKRHHVDITKKLHPNQAGLDSKVLIGSQNDLVDEEKERSNRGATAIAETFKNEKHQK
B2: INPPL1 (protein, UniProt O15357 1-1258)
chain: MASACGAPGPGGALGSQAPSWYHRDLSRAAAEELLARAGRDGSFLVRDSESVAGAFALCVLYQKHVHTYRILPDGEDFLAVQTSQGVPVRRFQTLGELIGLYAQPNQGLVCALLLPVEGEREPDPPDDRDASDGEDEKPPLPPRSGSTSISAPTGPSSPLPAPETPTAPAAESAPNGLSTVSHDYLKGSYGLDLEAVRGGASHLPHLTRTLATSCRRLHSEVDKVLSGLEILSKVFDQQSSPMVTRLLQQQNLPQTGEQELESLVLKLSVLKDFLSGIQKKALKALQDMSSTAPPAPQPSTRKAKTIPVQAFEVKLDVTLGDLTKIGKSQKFTLSVDVEGGRLVLLRRQRDSQEDWTTFTHDRIRQLIKSQRVQNKLGVVFEKEKDRTQRKDFIFVSARKREAFCQLLQLMKNKHSKQDEPDMISVFIGTWNMGSVPPPKNVTSWFTSKGLGKTLDEVTVTIPHDIYVFGTQENSVGDREWLDLLRGGLKELTDLDYRPIAMQSLWNIKVAVLVKPEHENRISHVSTSSVKTGIANTLGNKGAVGVSFMFNGTSFGFVNCHLTSGNEKTARRNQNYLDILRLLSLGDRQLNAFDISLRFTHLFWFGDLNYRLDMDIQEILNYISRKEFEPLLRVDQLNLEREKHKVFLRFSEEEISFPPTYRYERGSRDTYAWHKQKPTGVRTNVPSWCDRILWKSYPETHIICNSYGCTDDIVTSDHSPVFGTFEVGVTSQFISKKGLSKTSDQAYIEFESIEAIVKTASRTKFFIEFYSTCLEEYKKSFENDAQSSDNINFLKVQWSSRQLPTLKPILADIEYLQDQHLLLTVKSMDGYESYGECVVALKSMIGSTAQQFLTFLSHRGEETGNIRGSMKVRVPTERLGTRERLYEWISIDKDEAGAKSKAPSVSRGSQEPRSGSRKPAFTEASCPLSRLFEEPEKPPPTGRPPAPPRAAPREEPLTPRLKPEGAPEPEGVAAPPPKNSFNNPAYYVLEGVPHQLLPPEPPSPARAPVPSATKNKVAITVPAPQLGHHRHPRVGEGSSSDEESGGTLPPPDFPPPPLPDSAIFLPPSLDPLPGPVVRGRGGAEARGPPPPKAHPRPPLPPGPSPASTFLGEVASGDDRSCSVLQMAKTLSEVDYAPAGPARSALLPGPLELQPPRGLPSDYGRPLSFPPPRIRESIQEDLAEEAPCLQGGRASGLGEAGMSAWLRAIGLERYEEGLVHNGWDDLEFLSDITEEDLEEAGVQDPAHKRLLLDTLQLSK
B3: MCM10 (protein, UniProt Q7L590 1-875)
chain: MDEEEDNLSLLTALLEENESALDCNSEENNFLTRENGEPDAFDELFDADGDGESYTEEADDGETGETRDEKENLATLFGDMEDLTDEEEVPASQSTENRVLPAPAPRREKTNEELQEELRNLQEQMKALQEQLKVTTIKQTASPARLQKSPVEKSPRPPLKERRVQRIQESTCFSAELDVPALPRTKRVARTPKASPPDPKSSSSRMTSAPSQPLQTISRNKPSGITRGQIVGTPGSSGETTQPICVEAFSGLRLRRPRVSSTEMNKKMTGRKLIRLSQIKEKMAREKLEEIDWVTFGVILKKVTPQSVNSGKTFSIWKLNDLRDLTQCVSLFLFGEVHKALWKTEQGTVVGILNANPMKPKDGSEEVCLSIDHPQKVLIMGEALDLGTCKAKKKNGEPCTQTVNLRDCEYCQYHVQAQYKKLSAKRADLQSTFSGGRIPKKFARRGTSLKERLCQDGFYYGGVSSASYAASIAAAVAPKKKIQTTLSNLVVKGTNLIIQETRQKLGIPQKSLSCSEEFKELMDLPTCGARNLKQHLAKATASGIMGSPKPAIKSISASALLKQQKQRMLEMRRRKSEEIQKRFLQSSSEVESPAVPSSSRQPPAQPPRTGSEFPRLEGAPATMTPKLGRGVLEGDDVLFYDESPPPRPKLSALAEAKKLAAITKLRAKGQVLTKTNPNSIKKKQKDPQDILEVKERVEKNTMFSSQAEDELEPARKKRREQLAYLESEEFQKILKAKSKHTGILKEAEAEMQERYFEPLVKKEQMEEKMRNIREVKCRVVTCKTCAYTHFKLLETCVSEQHEYHWHDGVKRFFKCPCGNRSISLDRLPNKHCSNCGLYKWERDGMLKEKTGPKIGGETLLPRGEEHAKFLNSLK

What follows are binders tested against fAKAP350 (N-terminally 3×FLAG-tagged full-length AKAP350A) (human) (assay: affinity purification with mass spectrometry).

| Binder | binding |
| --- | --- |
| B1 | binds |
| B2 | binds |
| B3 | binds |

Results are given in words; binding and its absence hold for the method and conditions named. Binding seen in cells or lysates may run through a third protein. A yes stands for co-enrichment or nearness to the bait. Other partners may have been found.
